Data on 1 molecule can be found in PMC6697737.

No constants are given. Whether binding was seen depends on the method and setting. In cells and extracts the contact can be indirect. Some results given as binding are weak or reduced against the parent protein; the word gives no strength. Sequences can lack the tags named with a protein.

Assay [1] has as its target T1, MNS3-GFP (Arabidopsis ER-α-mannosidase I fused to GFP) (Arabidopsis thaliana) (UniProt Q93Y37).
T1 sequence: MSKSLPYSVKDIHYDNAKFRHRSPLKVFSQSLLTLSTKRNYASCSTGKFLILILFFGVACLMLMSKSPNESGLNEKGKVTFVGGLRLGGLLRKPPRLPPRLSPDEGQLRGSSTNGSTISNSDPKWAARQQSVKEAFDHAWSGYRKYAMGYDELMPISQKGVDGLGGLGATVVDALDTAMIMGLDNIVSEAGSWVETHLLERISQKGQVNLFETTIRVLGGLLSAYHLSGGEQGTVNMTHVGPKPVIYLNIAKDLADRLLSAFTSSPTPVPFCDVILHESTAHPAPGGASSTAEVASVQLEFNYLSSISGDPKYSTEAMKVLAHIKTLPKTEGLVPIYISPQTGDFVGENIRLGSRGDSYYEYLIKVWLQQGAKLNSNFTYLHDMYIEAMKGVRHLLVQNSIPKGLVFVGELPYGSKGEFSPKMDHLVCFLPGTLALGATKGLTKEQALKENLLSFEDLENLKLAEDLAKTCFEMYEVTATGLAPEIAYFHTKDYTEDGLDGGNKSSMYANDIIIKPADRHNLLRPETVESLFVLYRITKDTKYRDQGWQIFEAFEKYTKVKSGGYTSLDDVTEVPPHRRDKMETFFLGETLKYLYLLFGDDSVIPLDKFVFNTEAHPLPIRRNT
Nature of the assay: FRET or BRET; two-photon FRET-FLIM in N. tabacum leaf epidermal cells treated with latrunculin B; GFP donor, mRFP acceptor; lifetimes taken at individual Golgi bodies. (In BRET a luciferase serves as donor, and the signal depends on an acceptor being close.)

For assay [2], the target named is T1, MNS3-GFP (Arabidopsis ER-α-mannosidase I fused to GFP) (Arabidopsis thaliana). Nature of the assay: co-IP; GFP baits co-expressed with mRFP fusions in N. benthamiana leaves; extracts in 1x PBS, 1% Triton X-100, protease inhibitors; GFP-Trap-A beads, 60-90 min at 4 °C; immunoblot with anti-GFP and anti-mRFP. In general terms: A western blot detects proteins with antibodies after separation by electrophoresis.

In assay [3] the target is T2, MNS3-GFP-HDEL (full-length MNS3 C-terminally tagged with GFP and the ER retrieval signal HDEL) (Arabidopsis thaliana) (UniProt Q93Y37).
T2 sequence: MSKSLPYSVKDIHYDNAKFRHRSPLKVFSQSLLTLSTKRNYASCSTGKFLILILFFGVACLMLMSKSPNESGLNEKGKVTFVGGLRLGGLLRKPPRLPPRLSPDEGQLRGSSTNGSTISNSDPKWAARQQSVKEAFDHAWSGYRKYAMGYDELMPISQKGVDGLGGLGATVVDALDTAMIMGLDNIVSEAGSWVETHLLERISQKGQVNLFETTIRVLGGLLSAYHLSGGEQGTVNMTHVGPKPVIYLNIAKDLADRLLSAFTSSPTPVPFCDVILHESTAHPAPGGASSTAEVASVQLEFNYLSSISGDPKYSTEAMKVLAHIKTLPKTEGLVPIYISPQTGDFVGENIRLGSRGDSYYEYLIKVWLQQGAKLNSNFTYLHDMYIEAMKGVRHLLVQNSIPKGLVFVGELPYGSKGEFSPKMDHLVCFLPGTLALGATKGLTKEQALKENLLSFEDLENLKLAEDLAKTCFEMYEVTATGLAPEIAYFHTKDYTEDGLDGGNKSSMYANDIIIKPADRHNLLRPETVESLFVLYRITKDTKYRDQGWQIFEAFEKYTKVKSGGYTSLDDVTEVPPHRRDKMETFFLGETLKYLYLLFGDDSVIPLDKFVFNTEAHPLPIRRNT
The assay is described as above.

B1: MNS1-mRFP (Arabidopsis Golgi-α-mannosidase I MNS1 fused to mRFP) (enzyme, UniProt Q9C512 1-560)
chain: MARSRSISGYGIWKYLNPAYYLRRPRRLALLFIVFVSVSMLVWDRINLAREHEVEVFKLNEEVSRLEQMLEELNGGVGNKPLKTLKDAPEDPVDKQRRQKVKEAMIHAWSSYEKYAWGKDELQPRTKDGTDSFGGLGATMVDSLDTLYIMGLDEQFQKAREWVASSLDFDKDYDASMFETTIRVVGGLLSAYDLSGDKMFLEKAKDIADRLLPAWNTPTGIPYNIINLRNGNAHNPSWAAGGDSILADSGTEQLEFIALSQRTGDPKYQQKVEKVITELNKNFPADGLLPIYINPDNANPSYSTTTFGAMGDSFYEYLLKVWVQGNKTSAVKPYRDMWEKSMKGLLSLVKKSTPSSFTYICEKNGNNLIDKMDELACFAPGMLALGASGYGPDEEKKFLSLAGELAWTCYNFYQSTPTKLAGENYFFTAGQDMSVGTSWNILRPETVESLFYLWRLTGNKTYQEWGWNIFQAFEKNSRVESGYVGLKDVNTGAKDNKMQSFFLAETLKYLYLLFSPSSVISLDEWVFNTEAHPLKIVARNDPRKPTIALRQRKFGHQINV
With B1, the binding entry was “binds weakly” in assay [1], “binds weakly” in assay [2] and “binds” in assay [3].
